PubChem BioAssay AID1259308, NCATS | 2017
Screen: 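Genes whose loss raises luciferase production in HEK293 cells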 (primary screen). Cell system: human HEK293 embryonic kidney cells stably expressing firefly luciferase (HEK-CMV-Luc2-Hygro). Reagent: single siRNA against human genes, 0.8 pmol siRNA per well. Duration: 72 h. Read-out: 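Reporter luminescence and viable-cell signal on separate replicate plates, given as percent of non-targeting control and median/MAD z-scores, plus per-cell luciferase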. Direction: total luciferase, z-score and total luciferase, % of control: higher = more reporter protein produced; luciferase per cell, z-score: higher = more reporter output per viable cell; viable cells, % of control: higher = more viable cells. Rule for the call: 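Active when the median/MAD z-score for overall luciferase is greater than 3; a gene was taken forward for validation with new siRNAs if at least two of its three siRNAs passed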. Calls: active = raised luciferase; inactive = no rise.
The whole screen tested about 59,000 reagents; shown is a part drawn at random. About 1,510 of them (2.6%) count as active. 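Calls use total luciferase alone and ignore viability, so some active siRNAs may act by altering cell number.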

| gene symbol | PubChem SID | total luciferase, z-score | total luciferase, % of control | luciferase per cell, z-score | viable cells, % of control | call |
| --- | --- | --- | --- | --- | --- | --- |
| ANXA10 | SID160730186 | 0.282 | 87.5 | 0.608 | 83.3 | inactive |
| ANXA10 | SID160730187 | -0.184 | 78.2 | -0.628 | 103 | inactive |
| ANXA10 | SID160730188 | -0.13 | 79.3 | -0.335 | 96.8 | inactive |
| MKX | SID160762756 | -0.863 | 64.7 | -0.358 | 79.5 | inactive |
| MKX | SID160762757 | 1.29 | 108 | 0.584 | 103 | inactive |
| MKX | SID160762758 | 0.0954 | 83.8 | 0.889 | 74.1 | inactive |
| LINC00869 | SID160724494 | -0.119 | 79.5 | 0.333 | 81.4 | inactive |
| LINC00869 | SID160733665 | -0.308 | 75.8 | 0.226 | 79.8 | inactive |
| LINC00869 | SID160745868 | -0.0867 | 80.2 | -0.107 | 92.1 | inactive |
| WASHC3 | SID160739866 | -0.00662 | 81.8 | -0.245 | 97.4 | inactive |
| WASHC3 | SID160739867 | -0.281 | 76.3 | -0.492 | 97.1 | inactive |
| WASHC3 | SID160739868 | 4.49 | 171 | 4.27 | 62.1 | active |
| NDFIP1 | SID160750538 | 0.921 | 100 | 1.46 | 76.2 | inactive |
| NDFIP1 | SID160750539 | -0.294 | 76 | -0.417 | 94.8 | inactive |
| NDFIP1 | SID160750540 | -0.631 | 69.3 | -1.21 | 107 | inactive |
| GUCD1 | SID160751242 | -0.638 | 69.2 | -0.642 | 91.6 | inactive |
| GUCD1 | SID160751243 | 0.307 | 88 | 0.149 | 94.6 | inactive |
| GUCD1 | SID160751244 | -0.9 | 64 | -1.12 | 96 | inactive |
| OR51B4 | SID160748820 | -1.88 | 44.6 | -0.989 | 64.6 | inactive |
| OR51B4 | SID160748821 | -0.237 | 77.2 | -0.315 | 93.7 | inactive |
| OR51B4 | SID160748822 | 1.56 | 113 | 0.783 | 103 | inactive |
| CUL2 | SID160720076 | -0.444 | 73.1 | -1.04 | 107 | inactive |
| CUL2 | SID160720077 | 0.0607 | 83.1 | -0.144 | 96.4 | inactive |
| CUL2 | SID160735104 | 1.2 | 106 | 0.243 | 111 | inactive |
| QTGAL | SID160730646 | 0.676 | 95.3 | -0.129 | 110 | inactive |
| QTGAL | SID160758394 | -1.02 | 61.7 | -1.03 | 90.3 | inactive |
| QTGAL | SID160758396 | -0.0656 | 80.6 | -0.51 | 103 | inactive |
| MTPAP | SID160743062 | 3.3 | 148 | 4.4 | 51.7 | active |
| MTPAP | SID160743063 | 0.261 | 87.1 | -0.294 | 105 | inactive |
| MTPAP | SID160743064 | 0.768 | 97.2 | 1 | 83.3 | inactive |
| CNTNAP5 | SID160756886 | 1.12 | 104 | 0.84 | 93.3 | inactive |
| CNTNAP5 | SID160756887 | -0.522 | 71.5 | -0.467 | 90.3 | inactive |
| CNTNAP5 | SID160756888 | 1.62 | 114 | 0.724 | 105 | inactive |
| ARMH4 | SID160758229 | -0.665 | 68.7 | -0.116 | 79.1 | inactive |
| ARMH4 | SID160758231 | -0.643 | 69.1 | -0.108 | 79.4 | inactive |
| ARMH4 | SID160758232 | 0.412 | 90.1 | -0.101 | 103 | inactive |
| CASP5 | SID160736633 | -1.21 | 57.9 | 0.189 | 61.5 | inactive |
| CASP5 | SID160736644 | -0.873 | 64.5 | 0.315 | 66.4 | inactive |
| CASP5 | SID160736655 | -0.989 | 62.2 | -0.894 | 88 | inactive |
| ATP5F1D | SID160721888 | 0.352 | 88.9 | 0.201 | 94.2 | inactive |
| ATP5F1D | SID160723670 | -0.628 | 69.4 | -0.897 | 98.2 | inactive |
| ATP5F1D | SID160723671 | -0.62 | 69.6 | -0.975 | 100 | inactive |
| CHRNB2 | SID160743374 | 0.268 | 87.2 | 0.676 | 81.6 | inactive |
| CHRNB2 | SID160743384 | -0.233 | 77.2 | -0.334 | 94.3 | inactive |
| CHRNB2 | SID160743396 | -0.242 | 77.1 | -0.633 | 102 | inactive |
| SPTLC1 | SID160728725 | 0.676 | 95.3 | 2.34 | 57.6 | inactive |
| SPTLC1 | SID160728726 | 0.715 | 96.1 | 0.552 | 92.9 | inactive |
| SPTLC1 | SID160728727 | 1.29 | 108 | 2.26 | 66.3 | inactive |
| BBS2 | SID160723118 | -0.169 | 78.5 | -0.679 | 105 | inactive |
| BBS2 | SID160723128 | -1.9 | 44.1 | -1.85 | 80.4 | inactive |
| BBS2 | SID160723139 | 0.818 | 98.1 | -0.169 | 115 | inactive |
| OR5J2 | SID160762730 | 0.282 | 87.5 | 0.43 | 87.3 | inactive |
| OR5J2 | SID160762731 | 0.168 | 85.2 | -0.0215 | 95.8 | inactive |
| OR5J2 | SID160762732 | 3.24 | 146 | 2.25 | 90.4 | active |
| FBXW4 | SID160716691 | -1.71 | 47.9 | -0.996 | 69.6 | inactive |
| FBXW4 | SID160716692 | -2.19 | 38.3 | -0.413 | 47.7 | inactive |
| FBXW4 | SID160716693 | 1.52 | 112 | 1.4 | 86.6 | inactive |

Single entries from the list.
For “call”, FBXW4 [SID160716691] reads inactive
Under “luciferase per cell, z-score”, CUL2 [SID160720076] has -1.04
OR51B4 [SID160748820], total luciferase, % of control = 44.6
For “call”, OR51B4 [SID160748822] shows inactive
Value of CNTNAP5 [SID160756886] under “luciferase per cell, z-score”: 0.84
